This note sets out measurements from article PMC4669806.

By UniProt entry, the sequences of proteins in these tests, tags left out.
UniProt P14598: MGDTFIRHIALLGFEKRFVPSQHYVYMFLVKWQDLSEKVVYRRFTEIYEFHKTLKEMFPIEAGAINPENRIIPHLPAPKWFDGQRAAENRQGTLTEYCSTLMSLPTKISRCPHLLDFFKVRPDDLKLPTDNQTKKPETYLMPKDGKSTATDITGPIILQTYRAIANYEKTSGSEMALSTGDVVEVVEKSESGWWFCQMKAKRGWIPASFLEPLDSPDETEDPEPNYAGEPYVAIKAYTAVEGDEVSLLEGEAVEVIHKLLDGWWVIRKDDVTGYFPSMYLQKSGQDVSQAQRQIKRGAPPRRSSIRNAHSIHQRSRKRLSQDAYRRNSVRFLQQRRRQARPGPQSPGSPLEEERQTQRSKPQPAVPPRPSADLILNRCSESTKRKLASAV
UniProt Q03135: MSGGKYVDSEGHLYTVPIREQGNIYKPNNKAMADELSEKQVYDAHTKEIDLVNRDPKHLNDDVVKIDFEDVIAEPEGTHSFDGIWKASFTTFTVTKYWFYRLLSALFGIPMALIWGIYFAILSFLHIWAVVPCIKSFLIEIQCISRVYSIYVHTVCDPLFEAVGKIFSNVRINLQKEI

In this assay the target is T1, NADPH oxidase 2 (NOX2, gp91^phox) (human (endogenous in INT-407)) (UniProt P04839).
T1 sequence: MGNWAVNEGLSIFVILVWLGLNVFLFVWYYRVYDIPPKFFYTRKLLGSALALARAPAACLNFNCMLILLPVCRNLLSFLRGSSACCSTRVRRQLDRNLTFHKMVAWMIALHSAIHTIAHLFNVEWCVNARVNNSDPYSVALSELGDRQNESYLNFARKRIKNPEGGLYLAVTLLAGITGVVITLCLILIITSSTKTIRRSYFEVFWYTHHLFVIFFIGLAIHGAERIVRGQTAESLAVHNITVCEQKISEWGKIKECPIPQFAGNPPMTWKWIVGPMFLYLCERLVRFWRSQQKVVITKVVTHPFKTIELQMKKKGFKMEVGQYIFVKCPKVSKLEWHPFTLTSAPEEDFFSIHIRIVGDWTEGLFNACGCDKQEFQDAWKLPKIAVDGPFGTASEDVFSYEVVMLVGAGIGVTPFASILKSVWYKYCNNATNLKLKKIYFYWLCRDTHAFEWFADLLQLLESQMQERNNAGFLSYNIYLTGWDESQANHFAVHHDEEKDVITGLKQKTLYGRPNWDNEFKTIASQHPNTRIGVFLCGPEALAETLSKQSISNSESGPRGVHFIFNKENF
Description: co-IP; INT-407 cells treated with rVvhA (50 pg/ml, 30 min) or vehicle (boiled rVvhA); lysis in 1% Triton X-100, 50 mM Tris-HCl pH 7.4, 150 mM NaCl, 5 mM EDTA; 400 ug lysate with 10 ug anti-NOX2 antibody, Protein A/G PLUS-agarose; western blotting for NCF1 and caveolin-1.

These are yes or no findings as the source states them, for the method shown. In cells and extracts the contact can be indirect. Some binding calls cover weakened binding; strength is not graded here.

As for “NCF1 (p47^phox) (from UniProt P14598 1-390)”, the binding result was “binds”. As for caveolin-1 (from UniProt Q03135 1-178), the entry is “binds”.
